Hit rate of the full screen: of about 300,000 compounds, about 5,400 (1.8%) were called active. Inconclusive means that the source gave no clear call. Such entries were picked first, then a sample of the others. The call rests on the fitted dose curve; tested in HEK293 cells. Potencies of inconclusive entries are doubtful fits and often do not repeat.
test: qHTS for inhibitors of binding or entry into cells for Marburg Virus; conditions: Marburg virus pseudotyped entry inhibition, cell reporter; activity change, negative = inhibition: at 37.8 µM (top of the series) unless noted
On the % scale 0 is the no-effect control and ±100 the full control effect; potency means the concentration at half of the fitted maximal effect.

SMILES	Potency	activity change, negative = inhibition
O=C(CCc1c[nH]c2ccccc12)NCCc1ccc(Cl)cc1	inconclusive: 31.6 µM [inhibitor, single point]	–
CCCCn1c(CCn2nc(C)c(Br)c2C)n[nH]c1=S	inactive	–
CC1(C)C(C=C(Cl)Cl)C1C(=O)Nc1ccc([N+](=O)[O-])cc1 (stereo not given)	inconclusive: 25.9 µM [inhibitor, partial curve, poor fit]	–
Cc1ccc(C)c(OCc2nc3ccccc3n2C)c1	inconclusive: 2 µM [activator, partial curve, poor fit]	–
C=CCNC1=C(Cl)C(=O)c2ccccc2C1=O	inconclusive: 35.5 µM [inhibitor, single point]	–
CSc1nc(-c2ccco2)nn1C(=O)c1ccccc1	inactive	–
CO/N=C/C(C#N)=C/c1ccc(OC)c(OC)c1	inactive	–
O=[N+]([O-])c1ccccc1S(=O)(=O)N1CCN(Cc2ccsc2)CC1	inconclusive: 12.6 µM [inhibitor, partial curve, poor fit]	–
O=C(Nc1ccccc1)OC1CCC2CC1CCC2OC(=O)Nc1ccccc1 (stereo not given)	inconclusive: 18.4 µM [inhibitor, single point]	–
N#Cc1c(-c2ccccc2)c(-c2ccccc2)n(Cc2ccco2)c1NC(=O)c1cccs1	inconclusive: 8.91 µM [inhibitor, partial curve, poor fit]	–
COc1ccc(CCNC(=O)c2ccc(CS(=O)(=O)c3ccc(Cl)cc3)o2)cc1OC	active: 14.6 µM	–
COc1ccc(OCC(=O)Nc2cc(S(=O)(=O)N3CCCC3)ccc2OCC(F)(F)F)cc1	inconclusive: 35.5 µM [inhibitor, partial curve, poor fit]	–
C=CCOc1ccc(CNc2ccc(NC(=O)CCC)cc2)cc1OCC	inconclusive: 35.5 µM [inhibitor, single point]	–
Cc1ccc(-c2nc(S(=O)(=O)c3ccc(C)cc3)c(SCC(=O)NCC3CCCO3)o2)cc1 (stereo not given)	inconclusive: 4.47 µM [inhibitor, single point]	–
O=C(NNC(=O)c1cccc(Br)c1)Nc1ccc(Cl)cc1	inconclusive: 0.355 µM [inhibitor, full curve, poor fit]	–
O=C(O)c1ccc2c3c(cccc13)C(=O)N(c1ccccc1)C2=O	inactive	–
COc1ccc(OCCSc2nc(C)nc3ccccc23)cc1	inconclusive: 15.8 µM [inhibitor, single point]	–
CCOC(=O)N1CCN(Cc2nc(N)nc(Nc3ccc(Cl)cc3)n2)CC1	inconclusive: 2.51 µM [activator, full curve, poor fit]	–
COCCNS(=O)(=O)c1ccc(Cl)c(C(=O)NC2CCN(Cc3ccccc3)CC2)c1	inactive	–
O=C(CCNS(=O)(=O)c1ccccc1)N1CCN(c2ccccc2F)CC1	inconclusive: 5.62 µM [inhibitor, partial curve, poor fit]	–
Cc1ccc(CNC(=O)C2CCC(=O)N(CCc3cccc(F)c3)C2)s1 (stereo not given)	inconclusive: 0.708 µM [inhibitor, partial curve, poor fit]	–
COc1ccc([N+](=O)[O-])cc1NC(=O)C(C)OC(=O)CSC(C)C(=O)Nc1cc(C)on1 (stereo not given)	inconclusive: 20 µM [activator, single point]	–
Cc1ccc(NC(=S)NNC(=O)c2nn(C)cc2Cl)cc1	inactive	–
Fc1ccccc1CCNCc1cccc(Cl)c1Cl	inactive	–

Structures above that contain an aryl thioether with sulfur outside any ring (3):
SMILES	Potency	activity change, negative = inhibition
CSc1nc(-c2ccco2)nn1C(=O)c1ccccc1	inactive	–
Cc1ccc(-c2nc(S(=O)(=O)c3ccc(C)cc3)c(SCC(=O)NCC3CCCO3)o2)cc1 (stereo not given)	inconclusive: 4.47 µM [inhibitor, single point]	–
COc1ccc(OCCSc2nc(C)nc3ccccc23)cc1	inconclusive: 15.8 µM [inhibitor, single point]	–

Next structures follow:

SMILES	Potency	activity change, negative = inhibition
CC1([N+](=O)[O-])COP(=O)(NCc2cccnc2)OC1 (stereo not given)	–	inconclusive: 2.52% [activator]
CC(Sc1ncccn1)C(=O)NC1(C#N)CCCCC1 (stereo not given)	inactive	–
COc1cccc(Cn2nc3c4cc(F)ccc4n(Cc4ccc(F)cc4)cc-3c2=O)c1	inactive	–
c1cc2ccc3ccc(-n4cnnn4)c4ccc(c1)c2c34	inactive	–
N#Cc1c(NCCN)nc(-c2ccccc2)c2c1CCCC2	inconclusive: 12.6 µM [inhibitor, single point]	–
N/C(=N\OC(=O)c1cccc([N+](=O)[O-])c1)c1cccnc1	inconclusive: 1.78 µM [activator, partial curve, poor fit]	–
Cc1[nH]c(=O)c(C(=O)c2cc(Cl)ccc2O)cc1C(=O)O	inactive	–
CCCC(=O)Nc1ccc(Cl)c(NC(=O)C(C)(C)C)c1	inactive	–
N=c1ccn2c(n1)O[C@H]1[C@@H](O)[C@@H](CO)O[C@H]12	inconclusive: 3.55 µM [inhibitor, full curve]	–
Cc1ccc(CN2CCN(c3ccccc3Cl)CC2)o1	inconclusive: 0.708 µM [activator, single point]	–
CC1=CC(C)(C)Nc2ccc(OC(=O)C(C)N3C(=O)c4ccccc4C3=O)cc21 (stereo not given)	inconclusive: 8.2 µM [inhibitor, partial curve, poor fit]	–
CN(C)C(=O)c1c([N+](=O)[O-])ncn1C	inconclusive: 0.316 µM [inhibitor, single point]	–
CCN(CC)S(=O)(=O)c1cccc(NC(=O)c2cc(-c3cccs3)nn2-c2ccccc2)c1	inconclusive: 18.4 µM [inhibitor, partial curve, poor fit]	–
CC1=C/C(=N\NC(=S)NCCc2ccccc2)CC(C)(C)C1	inactive	–
Cc1nn(-c2ccccc2)c(C)c1C(=O)OCC(=O)NC12CC3CC(CC(C3)C1)C2	inactive	–
O=C(CNC(=O)C12CC3CC(CC(C3)C1)C2)N1CCN(S(=O)(=O)c2cccs2)CC1	inactive	–
CCc1c(C)nc(N2CCN(c3ccc(Cl)cc3)CC2)[nH]c1=O	inconclusive: 31.6 µM [activator, single point]	–
COc1cc(C(C)=O)ccc1OCC(=O)Nc1ccccc1N1CCCCC1	inconclusive: 35.5 µM [inhibitor, partial curve, poor fit]	–
Cc1ccc(NC(=O)c2cccc(C(=O)OC(C)C)n2)c(Br)c1	inactive	–
Cc1cc(C(=O)Nc2ccc(N3CCOCC3)c3nonc23)ccc1[N+](=O)[O-]	inactive	–
O=C(CSC(=S)N1CCOCC1)Nc1ncc2c(n1)CC(c1ccco1)CC2=O (stereo not given)	inconclusive: 3.98 µM [inhibitor, single point]	–
O=C(Cn1cnc2c(nnn2Cc2ccccc2F)c1=O)NCC1CCCO1 (stereo not given)	inconclusive: 0.199 µM [activator, full curve, poor fit]	–
Cc1ccc(C(=O)N/C(=C\c2ccco2)C(=O)NCCN2CCCCC2)cc1C	inactive	–
CC(C)n1cc(/C=N/NC(=O)COc2cccc3cccnc23)c2ccccc21	active: 10 µM	–

SMILES	Potency	activity change, negative = inhibition
CC(C)(C)c1ccccc1NC(=O)c1cc(-c2ccncc2)nc2ccccc12	inconclusive: 11.2 µM [inhibitor, partial curve, poor fit]	–
Cc1sc(C(=O)Nc2ccc3ccccc3c2)cc1CC(=O)O	inactive	–
COc1ccc(NC(=O)CSc2ccc(-c3cccs3)nn2)c(OC)c1	inconclusive: 0.447 µM [activator, single point]	–
O=C(COc1cc(Cl)c(Cl)cc1Cl)NC(=O)NC1CCCC1	inconclusive: 0.112 µM [inhibitor, full curve, poor fit]	–
Brc1ccc(-c2nn3c(-c4ccccn4)nnc3s2)o1	inactive	–
NC(=O)c1ccc(NC(=O)C2CCCC2)cc1	inactive	–
Cc1ccccc1OCCNC(=O)/C=C/c1ccc([N+](=O)[O-])cc1	inconclusive: 35.5 µM [inhibitor, single point]	–
CCc1ccc(C(=O)NCc2cnn(C)c2)s1	inactive	–
COc1ccc(Cl)cc1NC(=O)COC(=O)/C=C/c1c(C)nn(C2CCS(=O)(=O)C2)c1Cl (stereo not given)	inactive	–
CC(=O)c1ccc(N(C)C)c2c(N(C)C)cccc12	inconclusive: 0.316 µM [inhibitor, full curve, poor fit]	–
CCc1ccccc1NC(=O)c1sc2nc(C)cc(C)c2c1N	inconclusive: 35.5 µM [inhibitor, single point]	–
COc1ccc(NC(=O)CC2C(=O)N(c3ccccc3)C(=O)N2CCc2sccc2C)cc1 (stereo not given)	inactive	–
C/C(=N\Nc1ccccc1)c1c(O)cc(C)oc1=O	inconclusive: 7.08 µM [inhibitor, full curve, poor fit]	–
CSC1=NCCN1C(=O)Cc1cccc2ccccc12	inconclusive: 6.31 µM [inhibitor, partial curve, poor fit]	–
O=C(CCCCCn1c(=S)[nH]c2ccc(N3CCOCC3)cc2c1=O)NC1CCN(Cc2ccccc2)CC1	inconclusive: 11.2 µM [inhibitor, partial curve, poor fit]	–
Cc1nc(N2CCN(S(=O)(=O)c3ccc(F)cc3)CC2)c2c(-c3cccs3)csc2n1	inconclusive: 3.98 µM [inhibitor, partial curve, poor fit]	–
O=[N+]([O-])c1cc(S(=O)(=O)N2CCCC2)ccc1N/N=C/c1ccccn1	inconclusive: 0.112 µM [inhibitor, full curve, poor fit]	–
O=C(CC1SC(=Nc2ccccc2)N(CCc2ccccn2)C1=O)Nc1ccc(F)cc1 (stereo not given)	inconclusive: 16.4 µM [inhibitor, partial curve, poor fit]	–
Cc1nn(-c2ccc(F)cc2)c(C)c1CN1CCN(CCC(C)C)C(CCO)C1 (stereo not given)	inconclusive: 10 µM [inhibitor, partial curve, poor fit]	–
Cc1ccc(NC2=NC(c3ccccc3)n3c(nc(C)cc3=O)N2)c(C)c1 (stereo not given)	inactive	–
CCn1nnc(NC(=O)c2cccc(-c3cc4ccccc4oc3=O)c2)n1	inconclusive: 0.58 µM [activator, full curve, poor fit]	–
Cc1ccc(NC(=O)c2c(C)oc3ccc(O)c(CN4CCN(Cc5ccccc5)CC4)c23)cc1	active: 10 µM	–

Three compounds from above, sorted by formula weight, low to high:
SMILES	Potency	activity change, negative = inhibition
Cc1sc(C(=O)Nc2ccc3ccccc3c2)cc1CC(=O)O	inactive	–
Cc1ccccc1OCCNC(=O)/C=C/c1ccc([N+](=O)[O-])cc1	inconclusive: 35.5 µM [inhibitor, single point]	–
Brc1ccc(-c2nn3c(-c4ccccn4)nnc3s2)o1	inactive	–

From PubChem BioAssay AID540276 (National Center for Advancing Translational Sciences (NCATS), 2011)
